According to the supplement of paper PMC11732987, “Enantioselective OTUD7B fragment discovery through chemoproteomics screening and high-throughput optimisation” (Communications Chemistry, 2025):
This is one part of the list. The data scatter; read single values as rough.

Chains of the proteins cited; added tags and fusions are not shown. Where a name states a change or a piece, a line headed by the entry shows the natural chain unless it says otherwise. Chains listed by the source or under a name are the forms on record and can include a tag or linker. Residues count along the entry.
UniProt P42858, whole entry, looked up: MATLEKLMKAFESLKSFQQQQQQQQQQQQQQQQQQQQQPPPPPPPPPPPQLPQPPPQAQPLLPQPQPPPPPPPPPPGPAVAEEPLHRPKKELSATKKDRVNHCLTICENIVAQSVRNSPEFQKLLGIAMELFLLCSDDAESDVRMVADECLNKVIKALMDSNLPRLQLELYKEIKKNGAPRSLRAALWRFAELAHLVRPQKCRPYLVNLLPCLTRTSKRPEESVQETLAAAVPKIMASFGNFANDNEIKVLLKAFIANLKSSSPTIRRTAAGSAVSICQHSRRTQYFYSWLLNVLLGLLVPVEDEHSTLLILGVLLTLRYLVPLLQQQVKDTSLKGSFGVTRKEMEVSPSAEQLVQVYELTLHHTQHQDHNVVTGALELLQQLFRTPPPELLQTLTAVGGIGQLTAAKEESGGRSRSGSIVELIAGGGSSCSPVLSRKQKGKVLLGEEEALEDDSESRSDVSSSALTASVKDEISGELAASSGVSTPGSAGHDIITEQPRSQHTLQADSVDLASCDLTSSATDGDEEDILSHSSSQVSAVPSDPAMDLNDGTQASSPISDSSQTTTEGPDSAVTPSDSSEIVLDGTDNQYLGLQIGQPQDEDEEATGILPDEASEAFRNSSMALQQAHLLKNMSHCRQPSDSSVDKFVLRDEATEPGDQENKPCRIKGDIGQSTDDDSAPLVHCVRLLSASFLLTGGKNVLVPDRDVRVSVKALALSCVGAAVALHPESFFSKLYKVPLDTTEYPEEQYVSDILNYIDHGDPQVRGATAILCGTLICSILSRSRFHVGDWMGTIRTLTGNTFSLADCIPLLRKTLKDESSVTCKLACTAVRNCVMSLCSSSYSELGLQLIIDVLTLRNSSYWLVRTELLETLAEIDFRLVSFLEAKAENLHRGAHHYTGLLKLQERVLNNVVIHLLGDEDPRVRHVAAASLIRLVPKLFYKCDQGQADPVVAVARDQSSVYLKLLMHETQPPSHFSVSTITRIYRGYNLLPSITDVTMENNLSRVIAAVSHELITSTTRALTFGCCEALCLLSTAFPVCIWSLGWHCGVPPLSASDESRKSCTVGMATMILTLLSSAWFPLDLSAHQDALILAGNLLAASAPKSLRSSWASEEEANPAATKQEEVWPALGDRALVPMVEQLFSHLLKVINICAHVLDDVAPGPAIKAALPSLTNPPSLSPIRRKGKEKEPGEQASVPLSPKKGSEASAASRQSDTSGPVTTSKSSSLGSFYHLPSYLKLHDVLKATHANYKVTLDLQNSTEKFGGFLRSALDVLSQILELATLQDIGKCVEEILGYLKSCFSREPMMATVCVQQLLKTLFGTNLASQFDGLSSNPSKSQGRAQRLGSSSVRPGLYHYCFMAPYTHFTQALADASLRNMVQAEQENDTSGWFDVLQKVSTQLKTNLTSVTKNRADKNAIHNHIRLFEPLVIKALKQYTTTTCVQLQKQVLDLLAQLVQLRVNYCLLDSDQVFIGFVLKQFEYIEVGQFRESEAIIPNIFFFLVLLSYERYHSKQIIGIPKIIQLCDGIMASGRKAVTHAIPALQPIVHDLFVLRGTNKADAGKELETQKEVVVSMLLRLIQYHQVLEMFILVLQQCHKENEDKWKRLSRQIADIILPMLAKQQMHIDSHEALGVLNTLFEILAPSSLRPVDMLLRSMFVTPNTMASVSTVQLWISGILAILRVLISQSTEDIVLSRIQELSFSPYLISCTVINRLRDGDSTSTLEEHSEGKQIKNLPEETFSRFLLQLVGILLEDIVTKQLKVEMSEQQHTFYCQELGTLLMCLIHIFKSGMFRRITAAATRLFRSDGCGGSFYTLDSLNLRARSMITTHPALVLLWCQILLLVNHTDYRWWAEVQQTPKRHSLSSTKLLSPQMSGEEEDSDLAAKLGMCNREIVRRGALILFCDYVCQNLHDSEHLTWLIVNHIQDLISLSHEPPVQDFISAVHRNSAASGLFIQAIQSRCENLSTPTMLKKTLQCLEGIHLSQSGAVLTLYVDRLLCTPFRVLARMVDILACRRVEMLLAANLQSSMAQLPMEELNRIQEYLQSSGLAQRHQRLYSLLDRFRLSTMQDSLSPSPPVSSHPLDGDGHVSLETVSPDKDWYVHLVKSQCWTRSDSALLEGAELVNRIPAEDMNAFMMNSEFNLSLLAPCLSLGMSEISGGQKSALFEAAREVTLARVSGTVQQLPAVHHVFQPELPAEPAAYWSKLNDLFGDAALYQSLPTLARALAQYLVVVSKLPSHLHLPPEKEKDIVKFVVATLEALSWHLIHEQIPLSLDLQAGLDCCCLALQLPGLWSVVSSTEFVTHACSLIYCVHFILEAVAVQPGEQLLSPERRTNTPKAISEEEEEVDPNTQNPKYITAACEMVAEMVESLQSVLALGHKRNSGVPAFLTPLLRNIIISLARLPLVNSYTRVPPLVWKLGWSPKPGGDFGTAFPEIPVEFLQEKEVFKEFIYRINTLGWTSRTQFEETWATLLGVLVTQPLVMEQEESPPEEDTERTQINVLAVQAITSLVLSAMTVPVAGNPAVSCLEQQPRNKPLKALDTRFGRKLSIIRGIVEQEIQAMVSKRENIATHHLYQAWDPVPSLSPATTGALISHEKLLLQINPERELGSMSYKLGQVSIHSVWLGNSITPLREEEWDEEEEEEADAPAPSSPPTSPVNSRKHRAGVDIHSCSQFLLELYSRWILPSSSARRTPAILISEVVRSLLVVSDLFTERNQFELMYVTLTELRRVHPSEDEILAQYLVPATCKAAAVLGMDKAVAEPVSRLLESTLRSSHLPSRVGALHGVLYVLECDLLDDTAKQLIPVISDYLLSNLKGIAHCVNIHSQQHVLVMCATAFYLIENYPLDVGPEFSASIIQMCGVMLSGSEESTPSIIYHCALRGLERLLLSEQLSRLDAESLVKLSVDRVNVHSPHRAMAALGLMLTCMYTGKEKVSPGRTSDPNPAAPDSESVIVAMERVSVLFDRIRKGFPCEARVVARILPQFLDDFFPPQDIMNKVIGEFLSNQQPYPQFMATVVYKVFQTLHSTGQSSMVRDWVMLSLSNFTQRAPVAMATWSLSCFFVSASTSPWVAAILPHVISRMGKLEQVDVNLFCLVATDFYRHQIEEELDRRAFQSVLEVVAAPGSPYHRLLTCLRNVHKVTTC
UniProt P42858, 417-437: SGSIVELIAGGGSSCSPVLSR
UniProt Q9P2D0, 512-532: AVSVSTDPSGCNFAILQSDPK
UniProt O00425, whole entry, looked up: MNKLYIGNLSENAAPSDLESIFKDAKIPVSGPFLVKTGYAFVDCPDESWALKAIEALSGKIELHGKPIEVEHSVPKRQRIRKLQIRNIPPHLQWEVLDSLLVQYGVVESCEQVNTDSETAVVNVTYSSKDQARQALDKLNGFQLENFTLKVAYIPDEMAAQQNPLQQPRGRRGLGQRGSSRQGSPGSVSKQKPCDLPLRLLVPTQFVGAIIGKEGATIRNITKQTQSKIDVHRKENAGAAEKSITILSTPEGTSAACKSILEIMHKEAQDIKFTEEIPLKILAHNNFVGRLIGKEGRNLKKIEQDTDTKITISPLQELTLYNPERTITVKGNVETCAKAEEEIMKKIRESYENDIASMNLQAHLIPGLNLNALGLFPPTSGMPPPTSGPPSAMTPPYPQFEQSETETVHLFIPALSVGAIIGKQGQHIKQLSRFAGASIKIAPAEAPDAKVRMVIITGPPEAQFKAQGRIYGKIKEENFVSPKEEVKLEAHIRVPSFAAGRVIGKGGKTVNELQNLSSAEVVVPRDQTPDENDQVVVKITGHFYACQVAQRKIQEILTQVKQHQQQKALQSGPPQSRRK
UniProt Q9H7X7: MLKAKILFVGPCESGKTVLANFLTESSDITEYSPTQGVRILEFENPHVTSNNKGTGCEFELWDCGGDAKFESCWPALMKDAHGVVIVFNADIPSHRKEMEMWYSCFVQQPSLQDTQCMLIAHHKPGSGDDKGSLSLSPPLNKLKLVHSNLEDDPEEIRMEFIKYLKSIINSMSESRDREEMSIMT
UniProt Q96HW7, whole entry, looked up: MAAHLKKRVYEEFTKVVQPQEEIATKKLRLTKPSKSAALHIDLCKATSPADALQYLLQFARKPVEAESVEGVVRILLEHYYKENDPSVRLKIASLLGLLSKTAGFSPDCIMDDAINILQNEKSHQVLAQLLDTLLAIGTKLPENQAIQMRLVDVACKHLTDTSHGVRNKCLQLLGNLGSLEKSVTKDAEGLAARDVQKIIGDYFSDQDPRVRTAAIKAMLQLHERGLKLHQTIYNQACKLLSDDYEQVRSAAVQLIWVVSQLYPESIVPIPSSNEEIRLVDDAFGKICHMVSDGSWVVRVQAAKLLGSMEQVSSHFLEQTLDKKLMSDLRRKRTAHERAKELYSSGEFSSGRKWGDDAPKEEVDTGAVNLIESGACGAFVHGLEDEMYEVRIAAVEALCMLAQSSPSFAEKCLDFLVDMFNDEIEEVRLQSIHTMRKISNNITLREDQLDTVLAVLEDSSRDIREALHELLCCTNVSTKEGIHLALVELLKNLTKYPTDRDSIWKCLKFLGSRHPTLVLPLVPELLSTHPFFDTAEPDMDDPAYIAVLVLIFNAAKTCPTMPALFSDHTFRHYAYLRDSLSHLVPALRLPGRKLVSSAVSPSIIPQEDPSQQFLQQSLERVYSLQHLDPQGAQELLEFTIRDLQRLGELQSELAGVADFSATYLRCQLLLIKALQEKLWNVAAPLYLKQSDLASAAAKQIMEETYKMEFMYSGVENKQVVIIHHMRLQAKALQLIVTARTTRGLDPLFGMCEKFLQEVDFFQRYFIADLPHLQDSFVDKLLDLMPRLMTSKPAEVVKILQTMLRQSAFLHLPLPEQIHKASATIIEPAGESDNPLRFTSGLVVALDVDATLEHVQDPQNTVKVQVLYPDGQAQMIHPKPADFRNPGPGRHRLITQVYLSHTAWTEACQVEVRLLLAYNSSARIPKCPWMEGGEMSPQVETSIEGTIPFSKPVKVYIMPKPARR
UniProt Q96HW7, 102-122: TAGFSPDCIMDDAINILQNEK
UniProt Q00613: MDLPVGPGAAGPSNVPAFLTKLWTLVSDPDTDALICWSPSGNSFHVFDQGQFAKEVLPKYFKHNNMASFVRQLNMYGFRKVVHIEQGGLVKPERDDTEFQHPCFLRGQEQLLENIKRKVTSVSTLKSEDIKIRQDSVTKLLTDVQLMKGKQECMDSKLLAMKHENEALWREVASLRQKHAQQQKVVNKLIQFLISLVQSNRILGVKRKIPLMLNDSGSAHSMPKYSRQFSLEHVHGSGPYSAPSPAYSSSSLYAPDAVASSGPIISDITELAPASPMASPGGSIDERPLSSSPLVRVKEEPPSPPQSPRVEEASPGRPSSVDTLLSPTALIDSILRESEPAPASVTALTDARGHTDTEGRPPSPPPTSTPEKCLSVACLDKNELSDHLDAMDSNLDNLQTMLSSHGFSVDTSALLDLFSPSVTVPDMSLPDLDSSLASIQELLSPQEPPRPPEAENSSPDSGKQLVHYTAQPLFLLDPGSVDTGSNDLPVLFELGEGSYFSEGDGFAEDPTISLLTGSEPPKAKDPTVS
UniProt Q9Y6M1, 233-256: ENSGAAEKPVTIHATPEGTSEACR
UniProt Q9NWZ3, 418-440: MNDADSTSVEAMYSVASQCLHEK
UniProt Q7Z5L9: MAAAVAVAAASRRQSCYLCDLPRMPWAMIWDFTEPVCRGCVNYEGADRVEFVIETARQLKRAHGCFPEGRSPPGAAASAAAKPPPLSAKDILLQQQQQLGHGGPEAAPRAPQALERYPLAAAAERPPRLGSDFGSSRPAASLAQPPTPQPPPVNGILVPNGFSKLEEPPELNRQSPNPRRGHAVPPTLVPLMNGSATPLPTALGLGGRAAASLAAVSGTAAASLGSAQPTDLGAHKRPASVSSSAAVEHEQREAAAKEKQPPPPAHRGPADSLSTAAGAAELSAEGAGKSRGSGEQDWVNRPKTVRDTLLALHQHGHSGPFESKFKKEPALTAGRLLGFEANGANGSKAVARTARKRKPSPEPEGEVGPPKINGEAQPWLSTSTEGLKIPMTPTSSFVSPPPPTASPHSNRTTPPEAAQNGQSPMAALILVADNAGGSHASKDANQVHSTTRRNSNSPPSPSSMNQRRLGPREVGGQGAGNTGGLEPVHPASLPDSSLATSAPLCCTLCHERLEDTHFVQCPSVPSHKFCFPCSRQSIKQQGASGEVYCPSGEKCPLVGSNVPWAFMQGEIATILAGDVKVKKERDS
UniProt Q92551: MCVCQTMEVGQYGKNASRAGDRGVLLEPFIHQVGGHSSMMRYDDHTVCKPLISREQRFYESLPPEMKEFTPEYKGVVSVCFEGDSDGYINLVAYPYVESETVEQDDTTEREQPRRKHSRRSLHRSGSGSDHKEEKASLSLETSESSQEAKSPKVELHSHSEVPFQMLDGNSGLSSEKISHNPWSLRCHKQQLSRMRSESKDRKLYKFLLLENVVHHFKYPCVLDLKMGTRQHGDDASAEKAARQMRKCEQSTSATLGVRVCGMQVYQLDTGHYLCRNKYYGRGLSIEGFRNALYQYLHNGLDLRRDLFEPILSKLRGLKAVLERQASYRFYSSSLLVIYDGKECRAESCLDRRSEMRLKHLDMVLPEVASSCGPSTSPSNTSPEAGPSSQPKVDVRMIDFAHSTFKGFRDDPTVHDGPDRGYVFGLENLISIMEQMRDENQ
UniProt Q9H0C8, 119-144: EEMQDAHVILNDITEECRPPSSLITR
IARS1_(C350,C350,C357,C357), as listed by the source: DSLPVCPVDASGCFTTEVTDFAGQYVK

Columns and labels:
[1] = compound: ClCC(=O)N[C@@H]1CCCc2ccccc12; test: log2 mean competition ratio of IA-DTB cysteine labelling (DMSO/compound) (log2 ratio); higher = stronger cysteine engagement by compound; details: treatment time: 4 h, cell line lysate: HEK293T
Protocol: (§1)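 IA-DTB competitive cysteine chemoproteomics in HEK293T RIPA lysate. Lysates were treated with compound 29 or 30 at 50 or 200 µM for 4 h, then IA-DTB (500 µM, 1 h), trypsin-digested, NeutrAvidin-enriched and analysed by diaPASEF. Competition ratio = intensity DMSO / intensity compound (n=4 treated, n=64 DMSO); binding: mean log2 CR ≥ 1 and p ≤ 0.05 plus QC filters. Target is the cysteine site.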

[2] = compound: ClCC(=O)N[C@H]1CCCc2ccccc12; test: as above; details: treatment time: 4 h, cell line lysate: HEK293T
Protocol: as §1

Target	log2 mean competition ratio ([1]; 50 µM)	log2 mean competition ratio ([1]; 200 µM)	log2 mean competition ratio ([2]; 50 µM)	log2 mean competition ratio ([2]; 200 µM)
HUWE1 C19	-0.299	0.715		
INTS13 C178 (UniProt Q9NVM9)	-0.0693	0.213		
IARS1 C433	0.224	-0.338		
IFRD2 C409 (UniProt Q12894)	0.111	-0.107		
HTT C2747 (UniProt P42858)	0.122	0.466		
IGF2R C1856 (UniProt P11717)	0.122	0.362		
HPRT1 C106 (UniProt P00492)	0.00966	-0.139		
IARS1_(C350,C350,C357,C357)	0.469	-0.0432		
IBTK C231 (UniProt Q9P2D0)	0.0553	-0.0629		
INTS6 C659 (UniProt Q9UL03)	0.151	0.452		
IFT27 C8 (UniProt Q9BW83)	-0.103	-0.00992		
IGF2BP3 C44 (UniProt O00425)	-0.00775	-0.161		
INTS1 C1433 (UniProt Q8N201)	0.544	1.38		
HUWE1 C1832	-0.0766	0.257		
INTS1 C1534 (UniProt Q8N201)	-0.132	-0.31		
INTS2 C988 (UniProt Q9H0H0)	0.0566	0.571		
IFFO1 C331	-0.111	0.287		
IPO11 C262 (UniProt Q9UI26)	0.0405	0.289		
IFT22 C12 (UniProt Q9H7X7)	0.178	0.121		
IPO4 C962 (UniProt Q8TEX9)	0.147	-0.18		
IPO5 C266	0.497	-0.0259		
IFT140 C1129 (UniProt Q96RY7)	-0.199	0.0943		

Target	log2 mean competition ratio ([1]; 50 µM)	log2 mean competition ratio ([1]; 200 µM)	log2 mean competition ratio ([2]; 50 µM)	log2 mean competition ratio ([2]; 200 µM)
IDH2 C113 (UniProt P48735)	-0.11	-0.139		
HUWE1 C2721	-0.138	-0.2		
INTS4 C156 (UniProt Q96HW7)	-0.113	0.27		
IFFO1 C341	0.0219	0.209		
ICE1 C904 (UniProt Q9Y2F5)	-0.133	0.4		
IPO4 C459 (UniProt Q8TEX9)	-0.0299	0.17		
HTT C150 (UniProt P42858)	-0.17	-0.0173		
HTRA2 C71 (UniProt O43464)	0.0125	0.195		
HTT C431 (UniProt P42858)	0.198	0.281		
IFT81 C557 (UniProt Q8WYA0)	0.0823	0.0539		
INPP4A C230 (UniProt Q96PE3)	-0.0889	-0.305		
INTS3 C731 (UniProt Q68E01)	-0.0199	0.127		
IDH3A C331 (UniProt P50213)	0.0686	-0.259		
IBTK C522 (UniProt Q9P2D0)	-0.132	-0.147		
IDI1 C172 (UniProt Q13907)	0.0439	-0.464		
HSPBP1 C201	-0.079	0.098	-0.27	0.125
INTS6 C219 (UniProt Q9UL03)	-0.0427	0.00328	-0.417	0.0863
INPP4A C540 (UniProt Q96PE3)	-0.0875	-0.232	0.805	-0.0285
HSF1 C103 (UniProt Q00613)	0.0863	0.88	-0.305	0.585
INTS9 C471 (UniProt Q9NV88)	-0.253	0.112	-0.497	-0.13
HSDL2 C166 (UniProt Q6YN16)	0.254	-0.246	-0.024	-0.349
HSD17B4 C425 (UniProt P51659)	0.00849	-0.201	-0.438	-0.196

Target	log2 mean competition ratio ([1]; 50 µM)	log2 mean competition ratio ([1]; 200 µM)	log2 mean competition ratio ([2]; 50 µM)	log2 mean competition ratio ([2]; 200 µM)
HPS5 C200 (UniProt Q9UPZ3)	0.14	0.189	0.16	0.239
IKBKG C347 (UniProt Q9Y6K9)	-0.0412	0.0114	0.27	0.294
INCENP C483 (UniProt Q9NQS7)	0.12	0.543	0.139	0.484
IGF2BP2 C255 (UniProt Q9Y6M1)	-0.143	-0.0122	-0.245	-0.085
HSPA14 C335 (UniProt Q0VDF9)	0.0489	0.00944	0.0439	0.0249
IRAK4 C436 (UniProt Q9NWZ3)	-0.116	0.00317	-0.127	-0.245
HSPH1 C796	-0.173	-0.186	-0.278	-0.275
IRF2BP2 C65 (UniProt Q7Z5L9)	-0.0815	-0.0594	0.252	0.00461
IP6K1 C248 (UniProt Q92551)	0.419	-0.357	0.624	-0.268
IRAK1 C225 (UniProt P51617)	-0.0476	0.148	-0.226	0.112
HSF1 C153 (UniProt Q00613)	-0.283	0.598	0.379	0.621
IPO4 C870 (UniProt Q8TEX9)	-0.194	0.169	-0.0525	0.262
INTS1 C969 (UniProt Q8N201)	-0.107	0.781	-0.0954	0.545
ILKAP C367 (UniProt Q9H0C8)	-0.164	0.0476	-0.267	-0.0902
IGF2BP3 C194 (UniProt O00425)	-0.464	0.399	-0.146	0.505
IPO5 C733	-0.0803	0.0622	-0.32	0.152
ILKAP C135 (UniProt Q9H0C8)	-0.153	0.0966	-0.143	-0.364
IPO9 C639 (UniProt Q96P70)	-0.333	0.125	0.156	0.00124
IREB2 C467 (UniProt P48200)	0.251	-0.233	-0.34	-0.108
HUWE1 C1074	0.0966	-0.393	-0.103	-0.293
IPO4 C782 (UniProt Q8TEX9)	0.584	0.137	-0.165	0.0374
IRF2BP2 C40 (UniProt Q7Z5L9)	-0.102	0.234	-0.196	0.0973

22 successive entries from above, for reference:
Target	log2 mean competition ratio ([1]; 50 µM)	log2 mean competition ratio ([1]; 200 µM)	log2 mean competition ratio ([2]; 50 µM)	log2 mean competition ratio ([2]; 200 µM)
HPS5 C200 (UniProt Q9UPZ3)	0.14	0.189	0.16	0.239
IKBKG C347 (UniProt Q9Y6K9)	-0.0412	0.0114	0.27	0.294
INCENP C483 (UniProt Q9NQS7)	0.12	0.543	0.139	0.484
IGF2BP2 C255 (UniProt Q9Y6M1)	-0.143	-0.0122	-0.245	-0.085
HSPA14 C335 (UniProt Q0VDF9)	0.0489	0.00944	0.0439	0.0249
IRAK4 C436 (UniProt Q9NWZ3)	-0.116	0.00317	-0.127	-0.245
HSPH1 C796	-0.173	-0.186	-0.278	-0.275
IRF2BP2 C65 (UniProt Q7Z5L9)	-0.0815	-0.0594	0.252	0.00461
IP6K1 C248 (UniProt Q92551)	0.419	-0.357	0.624	-0.268
IRAK1 C225 (UniProt P51617)	-0.0476	0.148	-0.226	0.112
HSF1 C153 (UniProt Q00613)	-0.283	0.598	0.379	0.621
IPO4 C870 (UniProt Q8TEX9)	-0.194	0.169	-0.0525	0.262
INTS1 C969 (UniProt Q8N201)	-0.107	0.781	-0.0954	0.545
ILKAP C367 (UniProt Q9H0C8)	-0.164	0.0476	-0.267	-0.0902
IGF2BP3 C194 (UniProt O00425)	-0.464	0.399	-0.146	0.505
IPO5 C733	-0.0803	0.0622	-0.32	0.152
ILKAP C135 (UniProt Q9H0C8)	-0.153	0.0966	-0.143	-0.364
IPO9 C639 (UniProt Q96P70)	-0.333	0.125	0.156	0.00124
IREB2 C467 (UniProt P48200)	0.251	-0.233	-0.34	-0.108
HUWE1 C1074	0.0966	-0.393	-0.103	-0.293
IPO4 C782 (UniProt Q8TEX9)	0.584	0.137	-0.165	0.0374
IRF2BP2 C40 (UniProt Q7Z5L9)	-0.102	0.234	-0.196	0.0973

The list goes on:

Target	log2 mean competition ratio ([1]; 50 µM)	log2 mean competition ratio ([1]; 200 µM)	log2 mean competition ratio ([2]; 50 µM)	log2 mean competition ratio ([2]; 200 µM)
IPO5 C348	-0.0544	0.64	-0.0733	0.82
HPCAL4 C187	-0.0536	-0.225	0.297	0.128
IPO13 C848 (UniProt O94829)	-0.109	0.0229	0.107	0.203
INTS4 C109 (UniProt Q96HW7)	-0.148	0.282	0.319	0.375
IP6K1 C48 (UniProt Q92551)	-0.00514	0.154	-0.404	-0.0988
INCENP C163 (UniProt Q9NQS7)	-0.243	0.0152	0.0272	-0.187
IPO7 C415 (UniProt O95373)	0.0532	-0.51	-0.116	-0.378
HSPA4L C540 (UniProt O95757)	0.243	-0.251	0.173	-0.32
INTS7 C374 (UniProt Q9NVH2)	-0.159	0.0476	-0.194	-0.141
IGF2R C1217 (UniProt P11717)	0.165	-0.0224	-0.0497	0.141
IKBKG C54 (UniProt Q9Y6K9)	0.19	-0.0674	0.0422	-0.0148
HUWE1 C3239	-0.0553	0.0227	0.042	0.0366
IRF2BP2 C521 (UniProt Q7Z5L9)	0.192	-0.189	-0.336	-0.247
IQGAP1 C494 (UniProt P46940)	-0.563	0.265	0.0862	0.362
INTS4 C558 (UniProt Q96HW7)	0.0461	-0.351	-0.124	-0.0505
HSPBAP1 C293 (UniProt Q96EW2)	0.0572	-0.0955	0.351	-0.27
HSDL2 C71 (UniProt Q6YN16)	0.0267	0.181	-0.0455	0.0386
IFT140 C577 (UniProt Q96RY7)	0.128	-0.214	0.0584	-0.0672
IRF2BP1 C518 (UniProt Q8IU81)	0.204	-0.174	-0.151	-0.319
IFT140 C917 (UniProt Q96RY7)	-0.143	0.259	-0.264	-0.225
IKBKG C95 (UniProt Q9Y6K9)	0.133	-0.173	-0.331	-0.0936
HUWE1 C3213	0.896	-0.0997	0.623	-0.212

Target	log2 mean competition ratio ([1]; 50 µM)	log2 mean competition ratio ([1]; 200 µM)	log2 mean competition ratio ([2]; 50 µM)	log2 mean competition ratio ([2]; 200 µM)
HPF1 C17 (UniProt Q9NWY4)	-0.00383	0.486	-0.271	0.508
IGF1R C488 (UniProt P08069)	-0.191	-0.0555	-0.541	-0.199
INTS12 C379 (UniProt Q96CB8)	-0.00294	0.00206	0.0257	0.0933
IKBKB C299 (UniProt O14920)	-0.014	0.0246	0.172	0.0724
HUWE1 C689	-0.109	-0.0923	-0.368	-0.0753
IARS1 C120	0.146	-0.223	-0.181	-0.257
IARS1 C336	0.287	-0.168	-0.188	-0.196
HUWE1 C3361	-0.142	0.24	-0.277	0.261
IPO11 C894 (UniProt Q9UI26)	-0.251	-0.137	-0.437	-0.17
HTT C1524 (UniProt P42858)	0.383	0.174	0.349	0.244
HSPH1 C845	0.165	-0.252	0.0243	-0.474
IQGAP3 C1411 (UniProt Q86VI3)	-0.192	0.138	-0.0884	0.194
IQGAP3 C1254 (UniProt Q86VI3)	0.149	-0.208	0.244	-0.16
INTS4 C751 (UniProt Q96HW7)	-0.0526	-0.177	-0.278	0.0501
IL17RA C703 (UniProt Q96F46)	-0.254	0.164	-0.0017	0.0256
HUWE1 C1401	-0.182	0.0912	-0.0209	0.0889
IFT20 C37 (UniProt Q8IY31)	-0.247	-0.0774	-0.0233	-0.0675
HUWE1 C1252	0.0414	0.17	0.458	0.219
IMPA2 C152 (UniProt O14732)	-0.168	-0.0418	0.097	-0.0418
HSPD1 C447 (UniProt P10809)	-0.116	-0.148	0.15	-0.0943
IFT172 C724 (UniProt Q9UG01)	0.215	0.14	-0.385	-0.038
HSD17B8 C41 (UniProt Q92506)	-0.0484	0.0586	-0.00654	0.174
